Measurements: patent publication US20250289905A1 (MIRIMGENE, published 2025)
These are yes or no findings as the source states them, for the method shown. Some results given as binding are weak or reduced against the parent protein; the word gives no strength.

Columns and labels:
[1] = biological target: T1, human WARS1 recombinant protein (human, UniProt P23381 2-471, limits assumed); assay: western blot; recombinant protein, THP-1 culture supernatant, human serum
T1 sequence: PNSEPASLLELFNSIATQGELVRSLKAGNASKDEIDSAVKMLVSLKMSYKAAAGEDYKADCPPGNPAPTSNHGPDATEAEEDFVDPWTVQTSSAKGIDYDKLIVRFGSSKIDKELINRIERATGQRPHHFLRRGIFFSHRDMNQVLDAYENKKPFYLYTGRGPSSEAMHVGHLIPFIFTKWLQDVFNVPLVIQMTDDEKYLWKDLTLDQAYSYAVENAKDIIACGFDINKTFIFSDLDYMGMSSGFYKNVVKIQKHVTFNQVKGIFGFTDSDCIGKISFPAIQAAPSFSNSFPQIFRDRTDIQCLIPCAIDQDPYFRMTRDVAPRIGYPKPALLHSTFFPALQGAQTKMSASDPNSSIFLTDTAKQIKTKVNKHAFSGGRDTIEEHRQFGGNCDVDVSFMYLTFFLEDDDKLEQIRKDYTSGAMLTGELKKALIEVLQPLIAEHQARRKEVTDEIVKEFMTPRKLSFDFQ
Method: (§1) At this time, a WARS1 recombinant protein (human, mouse, pig, marmoset (NHP), or rat-derived), cell culture medium, and human or mouse serum were used as WARS1 protein samples. In particular, the cell culture medium was used by treating the human monocyte cell line, THP-1, or the mouse macrophage cell line, J774.1A, with LPS (lipopolysaccharide, 100 ng/ml) for 24 hours to induce an inflammatory response, and then the cell culture supernatant was obtained for use.
(§2) 30 μg of each of the WARS1 recombinant protein (human, mouse, pig, marmoset (NHP), or rat-derived), the cell supernatant obtained using the method above, and mouse or human serum was loaded onto 8% SDS-PAGE, then transferred to a PVDF membrane (Millipore). Afterwards, the membrane was reacted with 1 μg/ml of GKB101 or a variant antibody thereof for 1 hour each, then washed with TBST (TBS+Tween20) three times. Afterwards, it was reacted with a secondary antibody (anti-human IgG HRP, Millipore) for 1 hour, then washed with TBST three times to be treated with ECL (West® bright ECL, Advanta) to identify its protein expression (LAS-4000, Fujifilm).

[2] = biological target: T2, mouse-derived WARS1 recombinant protein (mouse, UniProt P32921 1-481, limits assumed); assay: western blot; recombinant protein, J774A.1 culture supernatant, mouse serum
T2 construct: Recombinant, His-tagged (detected with anti-His tag antibody); construct not described; In the western blot also secreted WARS1 from J774A.1 supernatant and mouse serum; also called mouse WARS1
T2 sequence (looked up): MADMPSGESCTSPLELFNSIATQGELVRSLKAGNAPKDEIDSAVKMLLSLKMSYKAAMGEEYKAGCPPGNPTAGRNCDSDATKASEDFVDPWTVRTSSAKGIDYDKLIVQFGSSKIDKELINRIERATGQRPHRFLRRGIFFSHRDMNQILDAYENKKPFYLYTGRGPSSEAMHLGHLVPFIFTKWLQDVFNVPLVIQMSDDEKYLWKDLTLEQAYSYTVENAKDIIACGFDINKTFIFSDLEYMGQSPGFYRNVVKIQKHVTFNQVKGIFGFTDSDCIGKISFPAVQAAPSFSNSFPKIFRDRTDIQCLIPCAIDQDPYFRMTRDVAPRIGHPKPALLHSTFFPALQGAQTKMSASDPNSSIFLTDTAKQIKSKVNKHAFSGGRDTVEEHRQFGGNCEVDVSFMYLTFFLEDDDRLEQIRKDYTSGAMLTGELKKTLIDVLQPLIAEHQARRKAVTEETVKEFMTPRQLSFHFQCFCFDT
Method: as §1, §2

[3] = biological target: T2, mouse-derived WARS1 recombinant protein; assay: direct ELISA and sandwich ELISA, recombinant WARS1
[4] = biological target: T1, human WARS1 recombinant protein; assay: direct ELISA and sandwich ELISA, recombinant WARS1
[5] = biological target: T3, rat-derived WARS1 recombinant protein (rat, UniProt Q6P7B0 1-481, limits assumed); assay: direct ELISA and sandwich ELISA, recombinant WARS1
T3 construct: Recombinant, His-tagged (detected with anti-His tag antibody); construct not described; also called rat WARS1
T3 sequence (looked up): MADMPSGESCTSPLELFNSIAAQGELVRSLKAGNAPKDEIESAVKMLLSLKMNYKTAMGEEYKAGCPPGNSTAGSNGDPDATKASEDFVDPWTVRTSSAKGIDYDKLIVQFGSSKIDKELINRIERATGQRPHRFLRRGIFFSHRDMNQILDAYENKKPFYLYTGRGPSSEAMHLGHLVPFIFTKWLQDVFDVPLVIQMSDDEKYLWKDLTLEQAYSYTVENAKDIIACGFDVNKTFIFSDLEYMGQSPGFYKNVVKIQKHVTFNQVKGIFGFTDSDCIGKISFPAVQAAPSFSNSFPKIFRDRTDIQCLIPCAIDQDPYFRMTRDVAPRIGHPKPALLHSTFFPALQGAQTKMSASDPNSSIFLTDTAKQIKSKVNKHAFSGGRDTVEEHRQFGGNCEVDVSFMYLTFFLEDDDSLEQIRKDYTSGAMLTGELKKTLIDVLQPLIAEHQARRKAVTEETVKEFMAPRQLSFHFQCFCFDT

[6] = biological target: T3, rat-derived WARS1 recombinant protein; assay: western blot; recombinant protein
Method: as §1, §2

Measured: binding

B1: SHL/ILN (antibody, V domains shown)
VH: EVQLLESGGGLVQPGGSLRLSCAASGFTFSSYDMSWVRQAPGKGLEWVSAISSGGSSIYYADSVKGRFTISRDNSKNTLYLQMNSLRAEDTAVYYCARDVAWDMLGDFDYWGQGTLVTVSS
VL: QSVLTQPPSASGTPGQRVTISCTGSSSNIGSNYVYWYQQLPGTAPKLLIYANILRPSGVPDRFSGSKSGTSASLAISGLRSEDEADYYCGAWDDSNSAYVFGGGTKLTVLT
notes: L-CDR2 and L-CDR3 variant of GKB101; also called SHL/ILN antibody
binds: all assays above

B2: SHL/LLN (antibody, V domains shown)
VH: EVQLLESGGGLVQPGGSLRLSCAASGFTFSSYDMSWVRQAPGKGLEWVSAISSGGSSIYYADSVKGRFTISRDNSKNTLYLQMNSLRAEDTAVYYCARDVAWDMLGDFDYWGQGTLVTVSS
VL: QSVLTQPPSASGTPGQRVTISCTGSSSNIGSNYVYWYQQLPGTAPKLLIYANLLRPSGVPDRFSGSKSGTSASLAISGLRSEDEADYYCGAWDDSNSAYVFGGGTKLTVLT
notes: L-CDR2 and L-CDR3 variant of GKB101; also called SHL/LLN antibody
binds: all assays above

B3: SHL/QLN (antibody, V domains shown)
VH: EVQLLESGGGLVQPGGSLRLSCAASGFTFSSYDMSWVRQAPGKGLEWVSAISSGGSSIYYADSVKGRFTISRDNSKNTLYLQMNSLRAEDTAVYYCARDVAWDMLGDFDYWGQGTLVTVSS
VL: QSVLTQPPSASGTPGQRVTISCTGSSSNIGSNYVYWYQQLPGTAPKLLIYANQLRPSGVPDRFSGSKSGTSASLAISGLRSEDEADYYCGAWDDSNSAYVFGGGTKLTVLT
notes: L-CDR2 and L-CDR3 variant of GKB101; also called SHL/QLN antibody
binds: all assays above
